The list shows a part of the results. Shown are side measurements of this screen, not its main read-out; they come without a call. Most of these compounds were active or inconclusive in the main read-out, so they are no random draw. Potencies come from curve fits of mixed quality, noted in brackets.
Experiment: qHTS Assay for Lipid Storage Modulators in Drosophila S3 Cells;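 for cell number change: cells counted by Cell Tracker Red CMTPX staining in the red channel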
Conditions: BODIPY lipid droplet fluorescence, 18-24 h; for cell number change: measured here: cell count max response, cells fed with added oleic acid
Procedure, shortened: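 Drosophila S3 cells got compounds at several concentrations plus oleic acid (400 uM solution). Laser-scanning cytometry with 488 nm excitation read lipid droplets at 500-530 nm and cells at 575-640 nm. Percent activity was relative to 20 uM Triacsin C.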

[1] = measured here: cell number channel AC50, cells fed with added oleic acid
[2] = measured here: lipid fluorescence (Fed channel) AC50, cells fed with added oleic acid

SMILES	cell number change	AC50 [1]	AC50 [2]
O=C(N/N=C/c1ccncc1)c1ccccc1[N+](=O)[O-]	31.1%	23.1 µM [rising, single point]	4.61 µM [rising, single point]
Cc1ccc(N=C2NC(=O)CS2)cc1C	16.1%		
CCCCN(C(=S)NC(=O)c1cc(OC)c(OC)c(OC)c1)c1c(N)n(Cc2ccccc2)c(=O)[nH]c1=O	21.8%		11.6 µM [rising, partial curve, poor fit]
Cc1nn(C)c(C(=O)Nc2ccc(S(=O)(=O)NC34CC5CC(CC(C5)C3)C4)cc2)c1Br	-36.6%	20.6 µM [falling, partial curve, poor fit]	
CCOC(=O)C1CCCN(S(=O)(=O)c2cc3c4c(c2)CCC(=O)N4CCC3)C1 (stereo not given)	35%	11.6 µM [rising, partial curve, poor fit]	
COC(=O)Nc1sc2c(c1C(=O)NCc1ccco1)CCC2			0.58 µM [rising, single point]
O=C(c1cc(-c2ccccc2)n[nH]1)N1CCN(S(=O)(=O)c2ccccc2)CC1	17%		18.4 µM [falling, single point]
C/C(N)=C(/C#N)C(=O)COC(=O)c1cc(S(=O)(=O)N2CCCCC2)ccc1C			0.731 µM [rising, single point]
CCOc1ccc(C2C(C(=O)OC)=C(C)N=C3SCCC(=O)N32)cc1OCC (stereo not given)	12%	6.51 µM [rising, partial curve, poor fit]	2.06 µM [rising, partial curve]
CCOC(=O)c1c(C)[nH]c(C(=O)N2CCC(C(=O)OCC)CC2)c1C	-12.3%		
Cc1cc(C)c(C)c(S(=O)(=O)N2CCN(C(=O)c3ccc4c(=O)n5c(nc4c3)CCC5)CC2)c1C	49.4%	2.06 µM [rising, full curve]	
COc1cc(-c2nnc(Cn3cc(C(F)(F)F)ccc3=O)o2)cc(OC)c1OC			6.51 µM [falling, single point]
Cc1c(C(=O)OCC(=O)Nc2c(C)n(C)n(-c3ccccc3)c2=O)cccc1[N+](=O)[O-]	94.7%	20.6 µM [rising, single point]	0.58 µM [falling, single point]
CCNc1ccc(C(=O)OCC(=O)NCc2ccccc2Cl)cc1[N+](=O)[O-]	-27.8%		29.1 µM [falling, single point]
COc1ccc2cc(C#N)c(SCC(=O)N3CCCC3)nc2c1		4.61 µM [rising, single point]	
Cc1ccc(NC(=O)CCC(=O)NNC(=O)COc2ccccc2)c(C)c1	53.8%	18.4 µM [rising, single point]	1.16 µM [falling, single point]

A few values from above.
Cc1c(C(=O)OCC(=O)Nc2c(C)n(C)n(-c3ccccc3)c2=O)cccc1[N+](=O)[O-] | AC50 [1]: 20.6 µM [rising, single point]
COc1ccc2cc(C#N)c(SCC(=O)N3CCCC3)nc2c1 | AC50 [1]: 4.61 µM [rising, single point]

Reference: PubChem BioAssay AID2685 (National Center for Advancing Translational Sciences (NCATS), 2010)
